Test results reported in patent US12324794B2, “Method to alleviate the symptoms of PMS” (priority 2016, dated 2025).
At least one structure is not confirmed: it was looked up by name or label, or the drawing left a doubt.

Assays:
pH in water = format: physicochemical
[1] = Glutamate reduction in patients; format: in vivo, human; settings: orally in hypromellose capsules, lozenge, intravenous injection
women with PMS / PMDD = experiment: Case studies of women with PMS or PMDD symptoms (Examples 2-6); format: in vivo, human
Excerpt: Below are some case studies and a human trial, both of which show significant improvement in symptoms. While acne can be measured by inspection, the other symptoms rely upon the internal feelings of the patient. To measure symptoms that deal with tender breasts, fatigue, difficulty concentrating, diminished impulse control, irritability, anxiety, tension, anger, depression, suicidal thoughts, feeling “out of control”, insomnia, cramping and rapid fluctuations in mood, one skilled in the art must rely on the interpretation of patient. This can be done through an interview with an expert, such as a medical doctor, or through validated survey forms that specifically address these symptoms. […] The person in Example 3 continued to take oxaloacetate each month for the next three months and monitored their progress. […]

diabetics = settings: clinical trial, Yoshikawa 1968; cited from earlier work

## O=C(O)CC(=O)C(=O)O [Oxaloacetate]
pH in water
  pH in water: about 2.3
[1]
  glutamate level in patients: glutamate reduction
Women with PMS / PMDD; 1 pill daily from about 10 days before period, 2 capsules per day from first sign of PMS (Example 4)
  symptoms of PMDD over three months: completely resolved
Women with PMS / PMDD; person with PMDD, 200 mg in a hypromellose capsule (Example 3)
  PMDD symptoms (extreme cramping, suicidal thoughts, anger, anxiety): immediate relief from all symptoms
diabetics
  fasting glucose levels in diabetics: lower fasting glucose levels
